# Data source: PubChem BioAssay AID1224826 (NIAID, 2016)
# Aim: 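Knock-downs that raise or lower Tnf reporter signal after endotoxin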 (primary screen)
# Cells: RAW264.7 G9 macrophages from mouse bearing reporters for p65 (GFP) and the Tnf promoter (mCherry)
# Reagent: siRNA pool against mouse genes, 100 nM
# Duration: 16 h of LPS stimulation, after 2 days of siRNA transfection
# Treatment: bacterial lipopolysaccharide (Salmonella minnesota R595), 10 ng/ml
# Measurement: 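Imaged Tnf reporter mCherry in nuclei, minus background, normalised per plate to the median and expressed as robust z-scores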
# Reading the numbers: Tnf reporter robust z-score: higher = stronger Tnf promoter reporter signal after LPS
# Hit rule: 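a well counts as active at a score of -1.3 or below (Tlr4 knock-down control median) or above 3 (raised signal); controls and wells holding fewer than 50 cells are excluded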
# Calls: active = Tnf reporter clearly lowered or raised; inactive = no clear change in Tnf reporter
# In all, the deposit lists about 17,000 reagents; below is a random part of them. About 1,110 of them (6.6%) were called active. 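Active means lowered or raised reporter signal; replicate intensities are raw and not normalised per plate.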 Entries without a mark were called inactive. Further read-outs or replicates are left out here.
The first 5 records as a preview:
target,Tnf reporter robust z-score,fewer than 50 cells in well
Trmt2a,-0.67,enough cells in well
Or8b12c,,fewer than 50 cells per well; well left out of calls
Scx,0.47,enough cells in well
Pdap1,0.12,enough cells in well
Trim31,-0.18,enough cells in well

The listing, from the first entry:
target,Tnf reporter robust z-score,fewer than 50 cells in well
Trmt2a,-0.67,enough cells in well
Or8b12c,,fewer than 50 cells per well; well left out of calls
Scx,0.47,enough cells in well
Pdap1,0.12,enough cells in well
Trim31,-0.18,enough cells in well
Krt17,-0.43,enough cells in well
Rbbp6,-1.26,enough cells in well
H3c7,3.18 (active),enough cells in well
Rtl3,,fewer than 50 cells per well; well left out of calls
Apc,-1.3 (active),enough cells in well
Dcaf12,1.21,enough cells in well
Dhx15,,fewer than 50 cells per well; well left out of calls
Daw1,-1.36 (active),enough cells in well
Sec61a1,,fewer than 50 cells per well; well left out of calls
Decr2,-0.4,enough cells in well
Mdm2,,fewer than 50 cells per well; well left out of calls
Mfsd6l,-0.31,enough cells in well
Efcab12,-0.53,enough cells in well
9530019H20Rik,-0.29,enough cells in well
Vmn1r220,1.95,enough cells in well
P2rx5,2.01,enough cells in well
Ggct,0.47,enough cells in well
Gkn2,1.73,enough cells in well
Efcab6,,fewer than 50 cells per well; well left out of calls
Nsdhl,-0.44,enough cells in well
Ccl9,0.2,enough cells in well
4930544G11Rik,,fewer than 50 cells per well; well left out of calls
Celsr2,-0.61,enough cells in well
Park7,-0.42,enough cells in well
Alg11,-0.47,enough cells in well
Rnf115,-1.41 (active),enough cells in well
Or12d12,-0.2,enough cells in well
Spag5,0.37,enough cells in well
Klhl22,-0.82,enough cells in well
Klhl10,0.31,enough cells in well
Nphp4,0.27,enough cells in well
Atp6v1g3,-0.18,enough cells in well
Dhrs7b,0.21,enough cells in well
Arpc2,-0.23,enough cells in well
Bpifb1,-0.77,enough cells in well
